These are yes or no findings as the source states them, for the method shown. Binding seen in cells or lysates may run through a third protein. Here binding means that the protein was enriched with, or labelled near, the bait; the list need not be complete. Where a sequence is shown, tags or fusion partners need not be part of it.
How the values were obtained:
[1] = target: T1, HA-miniTurbo-tagged ULK1 (unc-51 like autophagy activating kinase 1) (UniProt O75385); experiment: proximity labelling
T1 sequence: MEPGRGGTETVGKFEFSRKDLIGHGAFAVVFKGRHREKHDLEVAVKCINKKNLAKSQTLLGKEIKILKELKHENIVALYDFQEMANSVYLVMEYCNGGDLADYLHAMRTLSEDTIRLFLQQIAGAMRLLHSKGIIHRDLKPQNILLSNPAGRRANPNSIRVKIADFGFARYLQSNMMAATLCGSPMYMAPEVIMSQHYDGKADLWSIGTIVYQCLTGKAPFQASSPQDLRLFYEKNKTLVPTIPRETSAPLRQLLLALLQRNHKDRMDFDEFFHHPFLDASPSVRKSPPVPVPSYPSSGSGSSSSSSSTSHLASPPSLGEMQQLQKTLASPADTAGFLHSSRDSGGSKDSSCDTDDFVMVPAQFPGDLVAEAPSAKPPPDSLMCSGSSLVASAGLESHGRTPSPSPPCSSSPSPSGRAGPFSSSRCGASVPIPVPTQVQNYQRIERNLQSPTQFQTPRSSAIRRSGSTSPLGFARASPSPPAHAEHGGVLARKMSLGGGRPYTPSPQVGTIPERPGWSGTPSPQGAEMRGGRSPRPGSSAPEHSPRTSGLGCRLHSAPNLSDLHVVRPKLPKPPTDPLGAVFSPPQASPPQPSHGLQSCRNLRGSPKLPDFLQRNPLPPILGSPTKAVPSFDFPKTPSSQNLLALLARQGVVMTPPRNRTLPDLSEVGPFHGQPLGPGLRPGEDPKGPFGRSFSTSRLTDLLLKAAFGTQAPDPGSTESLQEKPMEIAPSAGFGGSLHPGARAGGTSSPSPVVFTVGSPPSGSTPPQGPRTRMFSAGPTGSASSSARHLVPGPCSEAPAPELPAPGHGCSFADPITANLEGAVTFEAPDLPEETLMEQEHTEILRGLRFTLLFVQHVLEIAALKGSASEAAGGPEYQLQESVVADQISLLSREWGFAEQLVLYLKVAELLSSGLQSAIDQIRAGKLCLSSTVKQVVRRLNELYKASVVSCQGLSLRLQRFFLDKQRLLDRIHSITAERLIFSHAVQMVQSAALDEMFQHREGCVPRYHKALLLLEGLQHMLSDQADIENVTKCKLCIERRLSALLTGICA

[2] = target: T1, HA-miniTurbo-tagged ULK1 (unc-51 like autophagy activating kinase 1); experiment: affinity purification with mass spectrometry
[3] = target: T1, HA-miniTurbo-tagged ULK1 (unc-51 like autophagy activating kinase 1); experiment: affinity purification with mass spectrometry + proximity labelling

Measured: binding

Bcl-2-associated athanogene 2 (BAG2), endogenous (from UniProt O95816 1-211)
binds: all assays above

Reference: publication doi:10.1101/2023.12.08.570815
